# Results are given in words; binding and its absence hold for the method and conditions named. In cells and extracts the contact can be indirect. Some entries that bind do so weakly or less than the wild type.
# Protein sequences, listed by entry. Tags and fused reporters are not part of them.
# UniProt Q12796: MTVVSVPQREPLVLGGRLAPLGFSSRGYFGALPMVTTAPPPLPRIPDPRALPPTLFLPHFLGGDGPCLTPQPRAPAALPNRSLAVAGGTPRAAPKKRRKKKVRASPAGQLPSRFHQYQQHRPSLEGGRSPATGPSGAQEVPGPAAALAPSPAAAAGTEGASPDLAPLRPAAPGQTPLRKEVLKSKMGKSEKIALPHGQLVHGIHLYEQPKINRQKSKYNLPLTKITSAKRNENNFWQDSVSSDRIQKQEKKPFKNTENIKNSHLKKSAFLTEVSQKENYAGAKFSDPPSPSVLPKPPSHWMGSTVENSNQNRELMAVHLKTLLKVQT
# UniProt Q9NPJ4: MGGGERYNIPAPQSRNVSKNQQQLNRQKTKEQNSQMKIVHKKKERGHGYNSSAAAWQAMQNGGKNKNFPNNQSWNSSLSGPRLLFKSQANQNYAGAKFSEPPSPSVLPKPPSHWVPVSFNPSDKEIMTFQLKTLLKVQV
# B1: EDC4 (protein, UniProt Q6P2E9 1-1401)
# chain: MASCASIDIEDATQHLRDILKLDRPAGGPSAESPRPSSAYNGDLNGLLVPDPLCSGDSTSANKTGLRTMPPINLQEKQVICLSGDDSSTCIGILAKEVEIVASSDSSISSKARGSNKVKIQPVAKYDWEQKYYYGNLIAVSNSFLAYAIRAANNGSAMVRVISVSTSERTLLKGFTGSVADLAFAHLNSPQLACLDEAGNLFVWRLALVNGKIQEEILVHIRQPEGTPLNHFRRIIWCPFIPEESEDCCEESSPTVALLHEDRAEVWDLDMLRSSHSTWPVDVSQIKQGFIVVKGHSTCLSEGALSPDGTVLATASHDGYVKFWQIYIEGQDEPRCLHEWKPHDGRPLSCLLFCDNHKKQDPDVPFWRFLITGADQNRELKMWCTVSWTCLQTIRFSPDIFSSVSVPPSLKVCLDLSAEYLILSDVQRKVLYVMELLQNQEEGHACFSSISEFLLTHPVLSFGIQVVSRCRLRHTEVLPAEEENDSLGADGTHGAGAMESAAGVLIKLFCVHTKALQDVQIRFQPQLNPDVVAPLPTHTAHEDFTFGESRPELGSEGLGSAAHGSQPDLRRIVELPAPADFLSLSSETKPKLMTPDAFMTPSASLQQITASPSSSSSGSSSSSSSSSSSLTAVSAMSSTSAVDPSLTRPPEELTLSPKLQLDGSLTMSSSGSLQASPRGLLPGLLPAPADKLTPKGPGQVPTATSALSLELQEVEPLGLPQASPSRTRSPDVISSASTALSQDIPEIASEALSRGFGSSAPEGLEPDSMASAASALHLLSPRPRPGPELGPQLGLDGGPGDGDRHNTPSLLEAALTQEASTPDSQVWPTAPDITRETCSTLAESPRNGLQEKHKSLAFHRPPYHLLQQRDSQDASAEQSDHDDEVASLASASGGFGTKVPAPRLPAKDWKTKGSPRTSPKLKRKSKKDDGDAAMGSRLTEHQVAEPPEDWPALIWQQQRELAELRHSQEELLQRLCTQLEGLQSTVTGHVERALETRHEQEQRRLERALAEGQQRGGQLQEQLTQQLSQALSSAVAGRLERSIRDEIKKTVPPCVSRSLEPMAGQLSNSVATKLTAVEGSMKENISKLLKSKNLTDAIARAAADTLQGPMQAAYREAFQSVVLPAFEKSCQAMFQQINDSFRLGTQEYLQQLESHMKSRKAREQEAREPVLAQLRGLVSTLQSATEQMAATVAGSVRAEVQHQLHVAVGSLQESILAQVQRIVKGEVSVALKEQQAAVTSSIMQAMRSAAGTPVPSAHLDCQAQQAHILQLLQQGHLNQAFQQALTAADLNLVLYVCETVDPAQVFGQPPCPLSQPVLLSLIQQLASDLGTRTDLKLSYLEEAVMHLDHSDPITRDHMGSVMAQVRQKLFQFLQAEPHNSLGKAARRLSLMLHGLVTPSLP
# B2: EDC3 (protein, UniProt Q96F86 1-508)
# chain: MATDWLGSIVSINCGDSLGVYQGRVSAVDQVSQTISLTRPFHNGVKCLVPEVTFRAGDITELKILEIPGPGDNQHFGDLHQTELGPSGAGCQVGINQNGTGKFVKKPASSSSAPQNIPKRTDVKSQDVAVSPQQQQCSKSYVDRHMESLSQSKSFRRRHNSWSSSSRHPNQATPKKSGLKNGQMKNKDDECFGDDIEEIPDTDFDFEGNLALFDKAAVFEEIDTYERRSGTRSRGIPNERPTRYRHDENILESEPIVYRRIIVPHNVSKEFCTDSGLVVPSISYELHKKLLSVAEKHGLTLERRLEMTGVCASQMALTLLGGPNRLNPKNVHQRPTVALLCGPHVKGAQGISCGRHLANHDVQVILFLPNFVKMLESITNELSLFSKTQGQQVSSLKDLPTSPVDLVINCLDCPENVFLRDQPWYKAAVAWANQNRAPVLSIDPPVHEVEQGIDAKWSLALGLPLPLGEHAGRIYLCDIGIPQQVFQEVGINYHSPFGCKFVIPLHSA
# B3: PatL1 (protein, UniProt Q86TB9 1-770)
# chain: MFRYESLEDCPLDEDEDAFQGLGEEDEEIDQFNDDTFGSGAVDDDWQEAHERLAELEEKLPVAVNEQTGNGERDEMDLLGDHEENLAERLSKMVIENELEDPAIMRAVQTRPVLQPQPGSLNSSIWDGSEVLRRIRGPLLAQEMPTVSVLEYALPQRPPQGPEDDRDLSERALPRRSTSPIIGSPPVRAVPIGTPPKQMAVPSFTQQILCPKPVHVRPPMPPRYPAPYGERMSPNQLCSVPNSSLLGHPFPPSVPPVLSPLQRAQLLGGAQLQPGRMSPSQFARVPGFVGSPLAAMNPKLLQGRVGQMLPPAPGFRAFFSAPPSATPPPQQHPPGPGPHLQNLRSQAPMFRPDTTHLHPQHRRLLHQRQQQNRSQHRNLNGAGDRGSHRSSHQDHLRKDPYANLMLQREKDWVSKIQMMQLQSTDPYLDDFYYQNYFEKLEKLSAAEEIQGDGPKKERTKLITPQVAKLEHAYKPVQFEGSLGKLTVSSVNNPRKMIDAVVTSRSEDDETKEKQVRDKRRKTLVIIEKTYSLLLDVEDYERRYLLSLEEERPALMDDRKHKICSMYDNLRGKLPGQERPSDDHFVQIMCIRKGKRMVARILPFLSTEQAADILMTTARNLPFLIKKDAQDEVLPCLLSPFSLLLYHLPSVSITSLLRQLMNLPQSAATPALSNPHLTAVLQNKFGLSLLLILLSRGEDLQSSDPATESTQNNQWTEVMFMATRELLRIPQAALAKPISIPTNLVSLFSRYVDRQKLNLLETKLQLVQGIR
# Key:
# [1] = molecular target: GFP-tagged DCP2 (human) (UniProt Q8IU60); assay: co-IP; GFP-DCP2 with HA-PNRC1 or V5-tagged PNRC2 in HEK-293T wild-type or DCP1a/b-knockout cells; immunoprecipitated with anti-GFP antibodies; RNase A; NET buffer; western blot
# [2] = molecular target: V5-Streptavidin-Binding Peptide (SBP)-DCP2 (human) (UniProt Q8IU60); assay: pull-down; V5-SBP-DCP2 expressed in HEK-293T wild-type cells (for EDC4 also DCP1a/b-null cells), purified on streptavidin beads; endogenous decapping factors detected by western blot; RNase A added to the cell extract; NET buffer (50 mM Tris-HCl pH 7.5, 150 mM NaCl, 1 mM EDTA, 0.1% Triton-X-100, 10% glycerol)
# [3] = molecular target: V5-Streptavidin-Binding Peptide (SBP)-DCP2 (human) (UniProt Q8IU60); assay: pull-down; as a1, but V5-SBP-DCP2 expressed in DCP1a/b-null HEK-293T cells (no DCP1a, no DCP1b); streptavidin beads; RNase A; western blot of endogenous decapping factors
Molecule,binding [1],binding [3],further results
HA-tagged PNRC1 (from UniProt Q12796 1-327),binds,,
V5-tagged PNRC2 (from UniProt Q9NPJ4 1-139),binds,,
B1,,,binding [2]: binds
B2,,binds weakly,
B3,,binds weakly,

# — article PMC11530239
